Literature values in patent US11819485B2, “Levodopa fractionated dose composition and use” (AVION PHARMACEUTICALS, LLC, priority 2018, dated 2023).

N[C@@H](Cc1ccc(O)c(O)c1)C(=O)O [LD, Levodopa]
half-life of LD in the blood stream (blood stream): about 1.5 hours
plasma half-life of LD (plasma): approximately 90 min
